pEC50: −log10 of the molar value. Some entries share one result that the patent states for a list of compounds.
Molecular target: T1, human GPR120 (Homo sapiens, UniProt Q5NUL3)
T1 construct: host or cells: HEK293 cells co-expressing Gqi5
T1 sequence (Q5NUL3 1-361): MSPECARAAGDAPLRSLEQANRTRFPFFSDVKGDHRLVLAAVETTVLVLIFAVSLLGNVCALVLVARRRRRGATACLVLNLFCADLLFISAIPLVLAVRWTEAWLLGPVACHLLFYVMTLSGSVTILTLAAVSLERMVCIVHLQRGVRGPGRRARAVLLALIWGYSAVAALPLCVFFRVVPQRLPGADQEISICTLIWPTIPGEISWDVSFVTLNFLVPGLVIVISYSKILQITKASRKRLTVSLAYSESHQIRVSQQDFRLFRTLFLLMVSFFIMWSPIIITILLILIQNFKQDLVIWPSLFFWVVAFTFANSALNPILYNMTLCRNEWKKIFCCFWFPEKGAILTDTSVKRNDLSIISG
Test: Intracellular Ca2+ assay in human GPR120 stable cell line (FLIPR Calcium 4 dye, Flexstation)
Assay type: cell-based
Conditions: eight concentrations from 0.00001 to 20 µM; changes (Max-Min) of fluorescence intensity
Method: Human GPR120 stable cell line was purchased from Multispan Inc (26219 Eden Landing Road, Hayward, CA94545). This GPR120 cell line was generated in HEK293 cells co-expressing Gqi5. In this cell line, the Flag epitope tag (DYKDDDDK) was fused to the amino terminus of human GPR120 protein.
The concentration of intracellular Ca^2+ was measured as described below. Human GPR120 cells were plated in 96 well plates (Poly-D-Lysine coated black/clear Plate, Greiner Bio-One) at 70,000 cells per well and cultured overnight in conditions of 37°C and 5% CO2. A Ca^2+ assay dye stock solution was prepared by adding 10 mL of assay buffer (HBSS/20mM HEPES, pH 7.4) to FLIPR Calcium 4 Assay Bulk Kit (Molecular Devices). The 10 mL of Ca^2+ assay dye solution was prepared by further diluting 0.5 mL of Ca^2+ assay dye stock solution with 10 mL of assay buffer. The medium of the cells was removed and immediately 100 µL of the Ca^2+ assay dye solution was dispensed into each well followed by incubation at 37°C and 5% CO2 for 50 minutes to incorporate the Ca^2+ dye into the cells. The cell plate was then placed in the Flexstation (Molecular Devices) for 20 minutes at 37°C. Compounds were dissolved in 100% DMSO and diluted to desired concentrations with assay buffer and placed in the Flexstation simultaneously with the cell plate for 20 minute incubation at 37°C prior to reading. Fluorescence intensity was measured immediately following compound addition (25 µL/well) on the Flexstation at an excitation wavelength of 485 nm and an emission wavelength of 525 with 515 nm auto cutoff. The resulting increase in fluorescence intensities corresponds to increases in intracellular Ca^2+ levels.
Compounds were dissolved in 100% DMSO to a concentration of 20 mM to provide stock solutions. To determine activity against human GPR120, compounds were added with human GPR120 stably expressing cells (described above), at eight desired concentrations ranging from 0.00001 to 20 µM, in 96 well plates and fluorescence intensities were measured for 90 seconds with 2-second intervals. An EC50 value (concentration of the GPR120 agonist where 50% of the agonist's maximal activity is observed) was calculated using the changes (Max-Min) of fluorescence intensity.
To determine percent activity for a tested compound, the fluorescence intensity value obtained at a particular concentration were compared to the maximal fluorescence intensity value obtained for reference compound GW9508 (4-[[(3-phenoxyphenyl)methyl]amino]benzene propanoic acid; British Journal of Pharmacology 2006 148, 619-628) or the compound of Example 25. When GW9508 was used as the reference compound, the maximal activity of GW9508 at 6.7µM was designated as 100% activity. When the compound of Example 25 was used as the reference compound, the maximal activity of the compound of Example 25 at 2.5 µM was designated as 100% activity. Typically, the GW9508 activity reached a maximum at a concentration of approximately 6.7 µM and typically the compound of Example 25 reached a maximum activity at approximately 2.5µM. […]

| Compound | pEC50 |
| --- | --- |
| [2H]C([2H])(Oc1ccc(CC(C)C(=O)O)cc1C(F)(F)F)c1cc(Cl)cc2c1OC(C)(C)C2 (centres unmarked) [Example 237, 3-(4-(dideuterio(5-chloro-2,2-dimethyl-2,3-dihydrobenzofuran-7-yl)methoxy)-3-(trifluoromethyl)phenyl)-2-methylpropanoic acid] | ≥ 6.00 |
| Cc1cc(OCc2cc(Cl)cc3c2OC(C)(C)C3)cc(C)c1CCC(=O)O [Example 205, 3-(4-((5-chloro-2,2-dimethyl-2,3-dihydrobenzofuran-7-yl)methoxy)-2,6-dimethylphenyl)propanoic acid] | ≥ 6.00 |
| CC1(C)Cc2cc(F)cc(COc3cc(Cl)c(CCC(=O)O)c(Cl)c3)c2O1 [Example 197, 3-(2,6-dichloro-4-((5-fluoro-2,2-dimethyl-2,3-dihydrobenzofuran-7-yl)methoxy)phenyl)propanoic acid] | ≥ 6.00 |
| CCc1cc(OCc2cc(F)cc3c2OC2(CCCC2)C3)ccc1CCC(=O)O [Example 203, 3-(2-ethyl-4-((5-fluoro-3H-spiro[benzofuran-2,1'-cyclopentane]-7-yl)methoxy)phenyl)propanoic acid] | ≥ 6.00 |
| COc1cc(OCc2cc(Cl)cc3c2OC(C)(C)C3)ccc1CC(C)C(=O)O (centres unmarked) [Example 39, 3-(4-((5-chloro-2,2-dimethyl-2,3-dihydrobenzofuran-7-yl)methoxy)-2-methoxyphenyl)-2-methylpropanoic acid] | ≥ 6.00 |
| CC1(C)Cc2cc(Cl)cc(COc3ccc(OCC(=O)O)cc3)c2O1 [Example 105, 2-(4-((5-chloro-2,2-dimethyl-2,3-dihydrobenzofuran-7-yl)methoxy)phenoxy)acetic acid] | ≥ 6.00 |
| CC1(C)Cc2cc(Cl)cc(COc3ccc4c(c3)CC(C(=O)O)C4)c2O1 (centres unmarked) [Example 112, 5-((5-chloro-2,2-dimethyl-2,3-dihydrobenzofuran-7-yl)methoxy)-2,3-dihydro-1H-indene-2-carboxylic acid] | ≥ 6.00 |
| CC(Cc1cc(F)c(OCc2cc(Cl)cc3c2OC(C)(C)C3)c(F)c1)C(=O)O (centres unmarked) [Example 38, 3-(4-((5-chloro-2,2-dimethyl-2,3-dihydrobenzofuran-7-yl)methoxy)-3,5-difluorophenyl)-2-methylpropanoic acid] | ≥ 6.00 |
| Cc1cc(OCc2cc(Cl)cc3c2OC(C)(C)C3)c(F)cc1CCC(=O)O [Example 215, 3-(4-((5-chloro-2,2-dimethyl-2,3-dihydrobenzofuran-7-yl)methoxy)-5-fluoro-2-methylphenyl)propanoic acid] | ≥ 6.00 |
| CC(C)Oc1ccc(Cl)cc1COc1cc2c(cc1F)C(CC(=O)O)CC2 (centres unmarked) [Example 257, 2-(5-((5-chloro-2-isopropoxybenzyl)oxy)-6-fluoro-2,3-dihydro-1H-inden-1-yl)acetic acid] | ≥ 6.00 |
| C[C@H](Cc1ccc(OCc2cc(Cl)cc3c2OC(C)(C)C3)c(C(F)(F)F)c1)C(=O)O [Example 143, (R)-3-(4-((5-chloro-2,2-dimethyl-2,3-dihydrobenzofuran-7-yl)methoxy)-3-(trifluoromethyl)phenyl)-2-methylpropanoic acid] | ≥ 6.00 |
| CC1(C)Cc2cc(F)cc(COc3ccc(CCC(=O)O)c(OC(F)(F)F)c3)c2O1 [Example 136, 3-(4-((5-fluoro-2,2-dimethyl-2,3-dihydrobenzofuran-7-yl)methoxy)-2-(trifluoromethoxy)phenyl)propanoic acid] | ≥ 6.00 |
| CC(Cc1ccc(OCc2cc(F)cc3c2OC(C)(C)C3)c(Cl)c1)C(=O)O (centres unmarked) [Example 155, 3-(3-chloro-4-((5-fluoro-2,2-dimethyl-2,3-dihydrobenzofuran-7-yl)methoxy)phenyl)-2-methylpropanoic acid] | ≥ 6.00 |
| Cc1c(CCC(=O)O)ccc(OCc2cccc3c2CC(C)(C)O3)c1C [Example 150, 3-(4-((2,2-dimethyl-2,3-dihydrobenzofuran-4-yl)methoxy)-2,3-dimethylphenyl)propanoic acid] | ≥ 6.00 |
| CC(C)Oc1cc(OCc2cc(Cl)cc3c2OC(C)(C)C3)ccc1CCC(=O)O [Example 116, 3-(4-((5-chloro-2,2-dimethyl-2,3-dihydrobenzofuran-7-yl)methoxy)-2-isopropoxyphenyl)propanoic acid] | ≥ 6.00 |

Next, values leading:

| pEC50 | Compound |
| --- | --- |
| ≥ 6.00 | CCc1cc(OCc2cc(Cl)cc3c2OC(C)(C)C3)c(F)cc1CCC(=O)O [Example 221, 3-(4-((5-chloro-2,2-dimethyl-2,3-dihydrobenzofuran-7-yl)methoxy)-2-ethyl-5-fluorophenyl)propanoic acid] |
| ≥ 6.00 | CC1(C)Cc2cc(F)cc(COc3ccc4c(c3)CC(C(=O)O)C4)c2O1 (centres unmarked) [Example 113, 5-((5-fluoro-2,2-dimethyl-2,3-dihydrobenzofuran-7-yl)methoxy)-2,3-dihydro-1H-indene-2-carboxylic acid] |
| ≥ 6.00 | CC(Cc1cc(F)c(OCc2ccc(F)c3c2OC(C)(C)C3)c(F)c1)C(=O)O (centres unmarked) [Example 28, 3-(3,5-difluoro-4-((4-fluoro-2,2-dimethyl-2,3-dihydrobenzofuran-7-yl)methoxy)phenyl)-2-methylpropanoic acid] |
| ≥ 6.00 | CC(C)Oc1cc(OCc2cc(F)cc3c2OC(C)(C)C3)ccc1CCC(=O)O [Example 115, 3-(4-((5-fluoro-2,2-dimethyl-2,3-dihydrobenzofuran-7-yl)methoxy)-2-isopropoxyphenyl)propanoic acid] |
| ≥ 6.00 | C[C@@H](Cc1ccc(OCc2cc(Cl)cc3c2OC(C)(C)C3)c(C(F)(F)F)c1)C(=O)O [Example 144, (S)-3-(4-((5-chloro-2,2-dimethyl-2,3-dihydrobenzofuran-7-yl)methoxy)-3-(trifluoromethyl)phenyl)-2-methylpropanoic acid] |
| ≥ 6.00 | O=C(O)CCc1ccc(OCc2cc(Cl)cc3c2OC2(CCCC2)C3)cc1Cl [Example 196, 3-(2-chloro-4-((5-chloro-3H-spiro[benzofuran-2,1'-cyclopentane]-7-yl)methoxy)phenyl)propanoic acid] |
| ≥ 6.00 | CCc1c(CCC(=O)O)ccc(OCc2cc(Cl)cc3c2OC(C)(C)C3)c1F [Example 217, 3-(4-((5-chloro-2,2-dimethyl-2,3-dihydrobenzofuran-7-yl)methoxy)-2-ethyl-3-fluorophenyl)propanoic acid] |
| ≥ 6.00 | CC1(C)Cc2cc(F)cc(COc3ccc(CCC(=O)O)cc3)c2O1 [Example 132, 3-(4-((5-fluoro-2,2-dimethyl-2,3-dihydrobenzofuran-7-yl)methoxy)phenyl)propanoic acid] |
| ≥ 6.00 | [2H]C1([2H])c2cc(Cl)cc(COc3ccc(CC(C)C(=O)O)cc3F)c2OC1(C)C (centres unmarked) [Example 146, 3-(4-((3,3-dideuterio-5-chloro-2,2-dimethyl-2,3-dihydrobenzofuran-7-yl)methoxy)-3-fluorophenyl)-2-methylpropanoic acid] |
| ≥ 6.00 | CC1(C)Cc2cc(F)cc(COc3ccc(C4CC4C(=O)O)cc3F)c2O1 (centres unmarked) [Example 180, 2-(3-fluoro-4-((5-fluoro-2,2-dimethyl-2,3-dihydrobenzofuran-7-yl)methoxy)phenyl)cyclopropanecarboxylic acid] |
| ≥ 6.00 | Cc1cc2cccc(COc3c(F)cc(CC(C)C(=O)O)cc3F)c2s1 (centres unmarked) [Example 151, 3-(3,5-difluoro-4-((2-methylbenzo[b]thiophen-7-yl)methoxy)phenyl)-2-methylpropanoic acid] |

From patent publication EP2582674B1 (Cymabay Therapeutics, Inc., priority 2010, dated 2011)
